# Like-named read-outs stand apart in the source and are kept apart here. No constants are given. Whether binding was seen depends on the method and setting. In cells and extracts the contact can be indirect. For some assays here: A result given as binding can be weak or reduced; the word gives no strength.
# Chains of the proteins cited; added tags and fusions are not shown. Lines headed by an entry give the natural chain unless they say otherwise; changes in a name come on top.
# UniProt P08913: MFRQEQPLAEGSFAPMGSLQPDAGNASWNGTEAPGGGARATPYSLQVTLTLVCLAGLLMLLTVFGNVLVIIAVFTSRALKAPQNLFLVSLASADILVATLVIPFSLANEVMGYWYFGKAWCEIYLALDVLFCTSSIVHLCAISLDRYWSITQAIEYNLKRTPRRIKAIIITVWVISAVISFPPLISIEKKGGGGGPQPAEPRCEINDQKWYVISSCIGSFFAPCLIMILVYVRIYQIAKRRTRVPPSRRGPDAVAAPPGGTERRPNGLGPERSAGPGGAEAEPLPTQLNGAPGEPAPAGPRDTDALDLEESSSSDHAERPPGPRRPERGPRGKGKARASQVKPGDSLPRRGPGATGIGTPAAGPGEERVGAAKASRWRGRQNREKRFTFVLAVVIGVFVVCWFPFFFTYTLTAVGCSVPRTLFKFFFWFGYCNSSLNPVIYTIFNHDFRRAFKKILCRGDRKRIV
# UniProt P32121: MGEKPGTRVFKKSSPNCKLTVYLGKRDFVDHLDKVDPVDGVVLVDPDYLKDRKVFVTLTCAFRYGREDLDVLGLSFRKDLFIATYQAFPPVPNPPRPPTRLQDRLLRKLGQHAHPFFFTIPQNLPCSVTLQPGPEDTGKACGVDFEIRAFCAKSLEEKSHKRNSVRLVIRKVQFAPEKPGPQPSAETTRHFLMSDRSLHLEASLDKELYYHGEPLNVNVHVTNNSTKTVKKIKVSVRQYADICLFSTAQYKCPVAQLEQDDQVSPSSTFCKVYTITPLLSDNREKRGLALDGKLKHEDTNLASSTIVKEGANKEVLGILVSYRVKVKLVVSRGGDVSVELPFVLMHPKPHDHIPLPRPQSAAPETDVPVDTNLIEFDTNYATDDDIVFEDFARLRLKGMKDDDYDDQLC
# Assays:
# [1] = molecular target: human α2A-adrenoceptor (human) (UniProt P08913)
# [2] = molecular target: human α2A-adrenoceptor (human) (UniProt P08913); assay: condition: only cells treated with mitragynine or atipamezole alone, without the agonist UK 14,304; split reporter; PathHunter eXpress ADRA2A enzyme-complementation assay in CHO-K1 cells; cells treated with mitragynine or atipamezole alone (agonist mode, no UK 14,304) for 90 min at 37 °C; luminescence read-out
substance,measurement,setting,value
β-arrestin2 (from UniProt P32121 1-409),binding,[1],binds
same,binding,[2],no binding
